Assay results as given in patent publication US5644024 (dated 1997).

Assay: general procedure: hybrid (solid and solution phase) peptide synthesis; aminomethyl-polystyrene resin; EDC hydrochloride/HOBt (solution); TBTU/DIPEA (on resin)
Conditions: for step yield: coupling step

Substance	step yield	cyclisation yield (cyclisation step)
[(12R,15R,18R)-12,15-dimethyl-10,13,16-trioxo-10,11,12,13,14,15,16,-17,18,19,20,21-dodecahydro-1,1 8-etheno-dibenz[b,n][1,5,8,11]oxatriazacyclopentadecen-18-ylcarbonyl]-L-alanyl-L-alanyl-L-alanyl-L-alanyl-L-alanyl-L-alanyl-(2-amino-2-methyl-propionyl)-L-alanyl-L-alanine (4-iodophenyl)amide	87.7%	
[(12S, 15S,18S)-12,15-dimethyl-10,13,16-trioxo-10,11,12,13,14,15, 16,17,18,19,20,21-dodecahydro-1,1 8-etheno-dibenz[b,n][1,5,8, 11]oxatriazacyclopentadecen-18-ylcarbonyl]-L-alanyl-L-alanyl-L-alanyl-L-alanyl-L-alanyl-L-alanyl-(2-amino-2-methyl-propionyl)-L-alanyl-L-alanine (4-iodophenyl)amide	91.8%	67%
